These are yes or no findings as the source states them, for the method shown.
Molecular target: full-length RNase E (RneFL), BACTH fusion (E. coli) (UniProt P21513)
Test: two-hybrid; BACTH in E. coli BTH101: RapZ variant fused to T18, RNase E variant fused to T25; β-galactosidase activity of cells grown to stationary phase at 28°C

The chains behind the UniProt entries cited, without tags or fusion partners. Where a name states a change or a piece, a line headed by the entry shows the natural chain unless it says otherwise.
UniProt P21513: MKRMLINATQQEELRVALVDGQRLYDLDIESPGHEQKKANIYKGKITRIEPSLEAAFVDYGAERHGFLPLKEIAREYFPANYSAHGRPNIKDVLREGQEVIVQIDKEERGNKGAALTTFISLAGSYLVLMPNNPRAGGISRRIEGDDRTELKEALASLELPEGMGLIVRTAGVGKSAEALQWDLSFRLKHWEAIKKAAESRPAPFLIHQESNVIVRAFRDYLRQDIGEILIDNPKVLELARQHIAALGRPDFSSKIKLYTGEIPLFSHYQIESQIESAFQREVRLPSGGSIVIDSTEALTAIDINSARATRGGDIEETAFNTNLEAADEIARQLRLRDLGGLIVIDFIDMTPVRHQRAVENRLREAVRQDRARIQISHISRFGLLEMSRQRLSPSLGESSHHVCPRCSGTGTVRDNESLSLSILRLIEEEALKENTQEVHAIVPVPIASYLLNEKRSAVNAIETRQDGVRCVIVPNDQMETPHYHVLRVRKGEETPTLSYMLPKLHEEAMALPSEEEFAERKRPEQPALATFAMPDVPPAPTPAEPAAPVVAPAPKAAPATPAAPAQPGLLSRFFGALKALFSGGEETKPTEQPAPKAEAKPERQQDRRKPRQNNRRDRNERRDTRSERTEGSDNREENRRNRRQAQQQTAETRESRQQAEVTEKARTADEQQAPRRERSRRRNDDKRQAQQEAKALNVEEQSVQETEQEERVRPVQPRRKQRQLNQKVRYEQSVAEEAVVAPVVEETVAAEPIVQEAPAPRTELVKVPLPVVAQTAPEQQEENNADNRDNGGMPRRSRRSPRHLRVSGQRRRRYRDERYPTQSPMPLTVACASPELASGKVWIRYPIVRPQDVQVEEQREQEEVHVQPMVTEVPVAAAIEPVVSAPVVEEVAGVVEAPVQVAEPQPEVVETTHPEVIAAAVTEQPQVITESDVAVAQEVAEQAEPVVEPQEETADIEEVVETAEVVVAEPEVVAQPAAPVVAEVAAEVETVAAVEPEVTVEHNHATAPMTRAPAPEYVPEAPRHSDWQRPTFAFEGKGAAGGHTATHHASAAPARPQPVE
UniProt P0A894: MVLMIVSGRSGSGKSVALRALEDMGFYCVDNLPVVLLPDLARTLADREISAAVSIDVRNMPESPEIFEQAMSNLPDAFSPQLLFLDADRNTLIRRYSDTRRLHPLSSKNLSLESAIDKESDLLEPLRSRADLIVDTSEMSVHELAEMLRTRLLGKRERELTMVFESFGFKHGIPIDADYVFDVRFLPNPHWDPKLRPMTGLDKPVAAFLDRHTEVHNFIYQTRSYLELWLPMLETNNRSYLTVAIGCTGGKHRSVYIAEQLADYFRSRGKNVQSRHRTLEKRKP

Question: “RapZ truncation lacking 8 residues from the carboxyl terminus, BACTH fusion (from UniProt P0A894) (domain or fragment)” was tested. Which binding did it give?
Answer: no binding
